PubChem BioAssay AID1053208, Peter MacCallum Cancer Centre, 2014
Test: 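Synthetic lethal interactions between gene loss and doxorubicin in osteosarcoma cells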 (primary screen). Cell system: mouse osteosarcoma cells, early-passage culture from an engineered mouse model of fibroblastic bone tumour. Knock-down reagent: siRNA pool against mouse genes, 40 nM. Duration: about 120 h (48 h before drug, then 72 h with drug). Treatment: doxorubicin 100 nM for 72 h, roughly 30-40% inhibitory dose. Read-out: 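Viability read as ATP luminescence after 72 h of 100 nM doxorubicin or none, duplicate wells averaged, scaled to non-targeting siRNA, then expressed as robust z-scores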. Scale: viability z-score with doxorubicin: higher = more viable cells under doxorubicin; viability z-score without drug: higher = more viable cells with knock-down alone; z-score of drug to no-drug ratio: higher = less drug sensitisation by knock-down. Call rule: 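Called active if knock-down leaves viability unchanged without drug (z within -2 to 2) but lowers it with doxorubicin (z at or under -2)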.
In all, the deposit lists about 17,000 reagents; below is a random part of them. Of all reagents, 788 (4.7%) were called active. 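Calls rest on z-score classes alone; an extra cut-off of viability at most 70% of control was not applied to them.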 Not all columns of the deposit are shown.

The first 3 records as a preview:
| target | combined z-score class | viability z-score with doxorubicin | viability z-score without drug | z-score of drug to no-drug ratio | outcome |
| --- | --- | --- | --- | --- | --- |
| Slx4ip (GeneID 74243) | low cell count with doxorubicin only | -2.47 | -0.17 | -2.36 | active |
| Dhx29 (GeneID 218629) | no change with or without drug | 0.67 | 1.69 | -0.34 | inactive |
| Mttp (GeneID 17777) | no change with or without drug | -0.45 | -1.69 | 0.9 | inactive |

The list itself, repeating the preview:
| target | combined z-score class | viability z-score with doxorubicin | viability z-score without drug | z-score of drug to no-drug ratio | outcome |
| --- | --- | --- | --- | --- | --- |
| Slx4ip (GeneID 74243) | low cell count with doxorubicin only | -2.47 | -0.17 | -2.36 | active |
| Dhx29 (GeneID 218629) | no change with or without drug | 0.67 | 1.69 | -0.34 | inactive |
| Mttp (GeneID 17777) | no change with or without drug | -0.45 | -1.69 | 0.9 | inactive |
| Cfap184 (GeneID 66717) | no change with or without drug | 0.34 | 0.51 | 0.11 | inactive |
| Mdfic (GeneID 16543) | no change with or without drug | -0.79 | 0 | -0.67 | inactive |
| Sbds (GeneID 66711) | high cell count without drug only | 1.01 | 2.19 | -0.34 | inactive |
| Smyd3 (GeneID 69726) | no change with or without drug | 0.45 | 1.52 | -0.45 | inactive |
| Trp53rka (GeneID 381406) | no change with or without drug | 0.11 | -0.84 | 0.9 | inactive |
| Slf1 (GeneID 105377) | no change with or without drug | -0.22 | 0.51 | -0.45 | inactive |
| Tpgs1 (GeneID 110012) | no change with or without drug | 0.22 | 1.52 | -0.67 | inactive |
| Fancl (GeneID 67030) | no change with or without drug | -0.79 | -0.84 | -0.11 | inactive |
| Zmym1 (GeneID 68310) | no change with or without drug | -0.56 | -0.84 | 0.11 | inactive |
| Cnppd1 (GeneID 69171) | no change with or without drug | -0.22 | 1.85 | -1.24 | inactive |
| Ifi35 (GeneID 70110) | low cell count without drug only | -1.8 | -3.54 | 0.79 | inactive |
| Gtf2ird2 (GeneID 114674) | no change with or without drug | 0.22 | 0.67 | -0.11 | inactive |
| Prkci (GeneID 18759) | no change with or without drug | 0 | 0 | 0.11 | inactive |
| Scrn2 (GeneID 217140) | no change with or without drug | 0.22 | -0.17 | 0.45 | inactive |
| Hectd2 (GeneID 226098) | no change with or without drug | 0.11 | 1.18 | -0.56 | inactive |
| Esr1 (GeneID 13982) | no change with or without drug | -0.67 | -1.85 | 0.79 | inactive |
| Rhbdf1 (GeneID 13650) | no change with or without drug | -1.12 | -0.67 | -0.67 | inactive |
| Nlrp10 (GeneID 244202) | no change with or without drug | 1.12 | 0 | 1.24 | inactive |
| Cfap65 (GeneID 241116) | no change with or without drug | 0.22 | 0.67 | -0.11 | inactive |
| Ap1s1 (GeneID 11769) | high cell count without drug only | 1.46 | 3.88 | -0.79 | inactive |
| Or5m9b (GeneID 258245) | no change with or without drug | 0.34 | 0.17 | 0.34 | inactive |
| Herpud2 (GeneID 80517) | no change with or without drug | 0.34 | -0.17 | 0.56 | inactive |
| Dab2ip (GeneID 69601) | no change with or without drug | -1.91 | -0.84 | -1.35 | inactive |
| Vmn1r228 (GeneID 171226) | no change with or without drug | 0.79 | 0.84 | 0.34 | inactive |
| Tnfsf8 (GeneID 21949) | no change with or without drug | -1.35 | -0.51 | -1.01 | inactive |
| Ofd1 (GeneID 237222) | no change with or without drug | 1.46 | 0.51 | 1.24 | inactive |
| Polm (GeneID 54125) | low cell count with doxorubicin only | -2.7 | -1.01 | -2.14 | active |
| BC016579 (GeneID 212998) | no change with or without drug | 0.34 | 0.51 | 0.11 | inactive |
| Gabarap (GeneID 56486) | no change with or without drug | 0 | 0.84 | -0.45 | inactive |
| Sh3yl1 (GeneID 24057) | no change with or without drug | -1.12 | -0.51 | -0.79 | inactive |
| Il36rn (GeneID 54450) | no change with or without drug | -1.69 | -1.01 | -1.01 | inactive |
| Man2b1 (GeneID 17159) | no change with or without drug | 0.45 | 0.84 | 0 | inactive |
| Gfer (GeneID 11692) | no change with or without drug | 0.9 | 1.18 | 0.22 | inactive |
| Rnf31 (GeneID 268749) | low cell count with and without drug | -2.7 | -2.53 | -1.24 | inactive |
| Or4k15c (GeneID 258313) | no change with or without drug | -0.45 | 0.17 | -0.45 | inactive |
| Smpd1 (GeneID 20597) | no change with or without drug | -0.45 | -1.18 | 0.45 | inactive |
| Hemk2 (GeneID 67768) | no change with or without drug | 0.56 | 0.84 | 0.11 | inactive |
| Ndufaf4 (GeneID 68493) | no change with or without drug | 0.67 | 0.17 | 0.67 | inactive |
| Strn (GeneID 268980) | no change with or without drug | 0.45 | 0.17 | 0.45 | inactive |
| Ccdc184 (GeneID 239650) | no change with or without drug | 1.01 | -0.34 | 1.46 | inactive |
| Adipoq (GeneID 11450) | no change with or without drug | -0.9 | -0.17 | -0.79 | inactive |
| Ttc27 (GeneID 74196) | no change with or without drug | 0.34 | 0.51 | 0.11 | inactive |
| Oprd1 (GeneID 18386) | no change with or without drug | -0.67 | -0.67 | -0.11 | inactive |
| Acot11 (GeneID 329910) | no change with or without drug | -0.67 | -0.51 | -0.22 | inactive |
| Eef1akmt2 (GeneID 72096) | low cell count with doxorubicin only | -2.02 | 1.35 | -2.7 | active |
| Cbr2 (GeneID 12409) | no change with or without drug | -1.46 | 0.51 | -1.69 | inactive |
| Panx1 (GeneID 55991) | no change with or without drug | -0.11 | -1.35 | 1.01 | inactive |
